# Assays:
# [1] = tested on: isolated segments of guinea pig ileum (histamine); assay: Antihistaminic activity: block of histamine in isolated segments of guinea pig ileum
# [2] = tested on: isolated segments of guinea pig ileum (acetylcholine); assay: Anticholinergic activity: block of acetylcholine in isolated segments of guinea pig ileum
structure (smiles),measurement,setting,value
"CN(C)CCOC(c1ccccc1)c1ccccc1 [Diphenhydramine, reference compound]",Conc. for 50% block of Histamine,[1],0.12 μg/20 ml
same,Conc. for 50% block of Acetylcholine,[2],3.3 μg/20 ml

# — patent US4210749A, “Substituted 1,2,4,5-tetrahydro-3H,3 benzazepines” (priority 1979, dated 1980)
